The text below walks through data of the supplement of paper PMC7877785.

A short description of this data set: self-splicing fitness, log relative to wild type (ln ratio); higher = more splicing; Tetrahymena group I intron in knt gene, E. coli kanamycin selection, DiMSum; sequences stand for … in CUCUCU…GGAGGGAAAAGUUAUCAGGCAUGCACCUGGUAGCUAGUCUUUAAACCAAUAGAUUGCAUCGGUUUAAAAGGCAAGACCGUCAAAUUGCGGGAAAGGGGUCAACAGCCGUUCAGUACCAAGUCUCAGGGGAAACUUUGAGAUGGCCUUGCAAAGGGUAUGGUAAUAAGCUGACGGACAUGGUCCUAACCACGCAGCCAAGUCCUAAGUCAACAGAUCUUCUGUUGAUAUGGAUGCAGUUCACAGACUAAAUGUCGGUCGGGGAAGAUGUAUUCUUCUCAUAAGAUAUAGUCGGACCUCUCCUUAAUGGGAGCUAGCGGAUGAAGUGAUGCAACACUGGAGCCGCUGGGAACUAAUUUGUAUGCGAAAGUAUAUUGAUUAGUUUUGGAGUACUCGUGGUCG
In a few lines: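 Six replicate transformations of E. coli BL21(DE3) with a pET-22b(+) library were grown overnight at 37°C or 30°C. The library randomised all eight P1ex-region intron nucleotides, the intron lying in the knt kanamycin-resistance gene, and plates were LB agar with or without 25 μg/mL kanamycin plus 100 μg/mL carbenicillin, 50 μM IPTG and 0.2% rhamnose. Pooled colonies were amplicon-sequenced on an Illumina HiSeq 2500, and fitness is the DiMSum error-weighted combination of wild-type-normalised replicate fold changes, kanamycin versus none.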

± gives the uncertainty stated by the source. The uncertainty is large for many entries.

Turning to GUUUAGCAAUAUUACGCCCC, the “self-splicing fitness (ln)” value is, setting by setting: (30 °C) 0.285 ± 1.1; (37 °C) -0.44 ± 1.
Turning to UGAGAGCAAUAUUACGGACC, the “self-splicing fitness (ln)” value (37 °C) was -1.79 ± 1.2.
Turning to AGCUAGCAAUAUUACGAAAC, the “self-splicing fitness (ln)” value (30 °C) is -4.1 ± 0.61.
UAGGAGCAAUAUUACGCACA: the “self-splicing fitness (ln)” value reads like this: (30 °C) -0.278 ± 0.33; (37 °C) -0.212 ± 0.38.
Take CUUGAGCAAUAUUACGGCGA: the “self-splicing fitness (ln)” value (30 °C) is -2.65 ± 1.1 and the “self-splicing fitness (ln)” value (37 °C) was -0.0848 ± 0.71.
In the case of UACGAGCAAUAUUACGUGAA, the “self-splicing fitness (ln)” value (37 °C) was -3.29 ± 0.52.
In the case of CCACAGCAAUAUUACGGACA, the “self-splicing fitness (ln)” value is, setting by setting: (30 °C) -3.12 ± 0.21; (37 °C) -2.51 ± 0.18.
As for UCUUAGCAAUAUUACGAGAA, the “self-splicing fitness (ln)” value (37 °C) was -2.3 ± 1.1.
Regarding GGGGAGCAAUAUUACGAUCA, the “self-splicing fitness (ln)” value (30 °C) is -1.45 ± 0.18 and the “self-splicing fitness (ln)” value (37 °C) was -0.807 ± 0.19.
Take GUUGAGCAAUAUUACGCUAG: the “self-splicing fitness (ln)” value (37 °C) is -2.29 ± 0.77.
In the case of GACGAGCAAUAUUACGAAGC, the “self-splicing fitness (ln)” value is -3.7 ± 0.59 (30 °C) and -2.9 ± 1.1 (37 °C).
As for UAAGAGCAAUAUUACGGAUU, the “self-splicing fitness (ln)” value (30 °C) was -3.88 ± 1.1.
Same read-out and setting: the figure for CGUUAGCAAUAUUACGCGUA is -3.9 ± 0.74; for AUAGAGCAAUAUUACGCAAC it is -3.59 ± 0.77.
Regarding CAUGAGCAAUAUUACGACCA, the “self-splicing fitness (ln)” value is, setting by setting: (30 °C) -1.78 ± 0.73; (37 °C) -2.39 ± 1.1.
Turning to GCGUAGCAAUAUUACGUAUA, the “self-splicing fitness (ln)” value (30 °C) was -2.15 ± 0.26 and the “self-splicing fitness (ln)” value (37 °C) is -1.52 ± 0.21.
For the sequence CGCUAGCAAUAUUACGGCGC, the “self-splicing fitness (ln)” value (37 °C) is -2.7 ± 0.54.
As for GCGAAGCAAUAUUACGCGGA, the “self-splicing fitness (ln)” value (30 °C) is -2.79 ± 0.76.
For the sequence AGAGAGCAAUAUUACGUGCC, the “self-splicing fitness (ln)” value runs as follows: (30 °C) -2.63 ± 0.56; (37 °C) -3.27 ± 1.
The corresponding values for UCUGAGCAAUAUUACGUACA are -3.01 ± 0.83 and -0.96 ± 0.68.
Take CCGCAGCAAUAUUACGCUCA: for the setting “30 °C”, the “self-splicing fitness (ln)” value was -2.81 ± 0.54.
On to CACAAGCAAUAUUACGAUUU, for which the “self-splicing fitness (ln)” value (30 °C) was -4.17 ± 0.18 and the “self-splicing fitness (ln)” value (37 °C) was -2.56 ± 0.15.
As for GCGUAGCAAUAUUACGCGCA, for the setting “30 °C”, the “self-splicing fitness (ln)” value was -2.16 ± 0.66.
On to UGAUAGCAAUAUUACGUGGC, for which, under “37 °C”, the “self-splicing fitness (ln)” value was -1.38 ± 0.63.
On to UCAGAGCAAUAUUACGCCUC, for which the “self-splicing fitness (ln)” value (37 °C) was -1.47 ± 0.87.
Consider AAAGAGCAAUAUUACGGGGA, for which the “self-splicing fitness (ln)” value is, setting by setting: (30 °C) -2.48 ± 0.35; (37 °C) -1.81 ± 0.28.
For the sequence UCGAAGCAAUAUUACGGCUC, the “self-splicing fitness (ln)” value reads like this: (30 °C) -2.77 ± 0.56; (37 °C) -1.93 ± 0.81.
For the sequence AUUGAGCAAUAUUACGGUAG, the “self-splicing fitness (ln)” value (37 °C) is -3.86 ± 0.59.
In the case of GAUAAGCAAUAUUACGAGCA, the “self-splicing fitness (ln)” value is, setting by setting: (30 °C) -2.12 ± 0.18; (37 °C) -0.853 ± 0.16.
Take CGGCAGCAAUAUUACGCCAG: the “self-splicing fitness (ln)” value (37 °C) is -2.56 ± 0.55.
On to UCAGAGCAAUAUUACGCUGU, for which the “self-splicing fitness (ln)” value (37 °C) is -2.33 ± 0.55.
For the sequence CUAUAGCAAUAUUACGGGAC, under “37 °C”, the “self-splicing fitness (ln)” value is -2.18 ± 1.1.
Turning to CGCGAGCAAUAUUACGACUU, the “self-splicing fitness (ln)” value (30 °C) is -2.31 ± 0.5.
In the case of UCUCAGCAAUAUUACGAAGC, under “37 °C”, the “self-splicing fitness (ln)” value was -2.18 ± 0.67.
The same measure, in the same setting: the figure for UGGUAGCAAUAUUACGCAAC is -3.55 ± 1.
For the sequence GAACAGCAAUAUUACGUUUG, the “self-splicing fitness (ln)” value by setting is: (30 °C) -2.2 ± 0.067; (37 °C) -0.632 ± 0.075.
On to CGAUAGCAAUAUUACGCCAU, for which the “self-splicing fitness (ln)” value was -3.28 ± 0.53 (30 °C) and -2.67 ± 0.75 (37 °C).
As to CAUGAGCAAUAUUACGCUAC, under “30 °C”, the “self-splicing fitness (ln)” value is -1.04 ± 0.67.
For the sequence UAACAGCAAUAUUACGCUUC, the “self-splicing fitness (ln)” value (30 °C) is -2.39 ± 0.51 and the “self-splicing fitness (ln)” value (37 °C) is -1.98 ± 0.64.
Consider UUCAAGCAAUAUUACGAUUU, for which the “self-splicing fitness (ln)” value is -3.24 ± 0.21 (30 °C) and -1.12 ± 0.17 (37 °C).
As for UAUAAGCAAUAUUACGUAGC, the “self-splicing fitness (ln)” value (30 °C) is -3.39 ± 0.61.
Consider GUGCAGCAAUAUUACGCCAC, for which the “self-splicing fitness (ln)” value (30 °C) is -1.34 ± 0.73.
Turning to CUGUAGCAAUAUUACGCUGG, under “30 °C”, the “self-splicing fitness (ln)” value is -2.84 ± 0.75.
CUGUAGCAAUAUUACGCUAA: the “self-splicing fitness (ln)” value is, setting by setting: (30 °C) -2.84 ± 0.75; (37 °C) -1.93 ± 0.51.
With GCAGAGCAAUAUUACGACCC, the “self-splicing fitness (ln)” value (30 °C) was -2.87 ± 1.1 and the “self-splicing fitness (ln)” value (37 °C) was -0.000218 ± 0.52.
On the same counts, the results for GUGAAGCAAUAUUACGAUGC are -1.65 ± 0.57 and -0.66 ± 0.5.
As to CACCAGCAAUAUUACGGUUC, the “self-splicing fitness (ln)” value is, setting by setting: (30 °C) -2.02 ± 0.065; (37 °C) -1.25 ± 0.085.
